# Measurements reported in PubChem BioAssay AID743454 (Peter MacCallum Cancer Centre, 2014).
# Purpose: 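Genes whose loss kills vorinostat-resistant colon cancer cells under vorinostat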 (primary screen)
# Cell system: human HCT116-VR colon cancer cells, selected for vorinostat resistance
# Knock-down reagent: siRNA pool against human genes, 40 nM siRNA pool
# Timing: vorinostat for 24 h, read-out about 72 h after transfection
# Challenge: vorinostat at 2.5 µM final
# Read-out: 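Cell viability by CellTiter-Fluor and caspase 3/7 activity by luminescence, each scaled to mock wells per plate, duplicates averaged, then robust z-scored over all plates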
# Reading the numbers: viability robust z-score: higher = more viable cells than screen typical; caspase robust z-score: higher = more caspase 3/7 activity than screen typical
# Active means: 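Hits are knock-downs in viability class RV1/RV2 or caspase class CA1/CA2, excluding ones that killed cells in the no-drug cell-count arm; hits then retested with single siRNAs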
# Here is an unselected part of about 18,000 deposited reagents. In the full data, 450 (2.5%) are marked active. 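Single biological run; no consistent viability z cut-off exists, so the class columns, not z-scores, define the calls.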 Unmarked entries are inactive. The numbers tell different reagents against one gene apart.
Gene,pool no.,viability hit class,caspase hit class,viability robust z-score,caspase robust z-score
MRPS35 (GeneID 60488),1,no change,no change,-0.09,1.09
REM1 (GeneID 28954),1,no change,no change,0.7,0.38
INTS7 (GeneID 25896),1,no change,no change,-0.8,0.37
NFIC (GeneID 4782),1,no change,no change,-0.54,0.92
RNFT1 (GeneID 51136),1,no change,no change,0.76,-0.4
GDPD5 (GeneID 81544),1,no change,no change,-0.74,-0.7
RBBP9 (GeneID 10741),1,RV2 (reduced viability) (active),no change,-4.2,3.32
OR4S2 (GeneID 219431),1,no change,no change,-1.31,-1.27
CT45A3 (GeneID 441519),1,no change,no change,0.44,0.18
CT45A3 (GeneID 441519),2,no change,no change,0.14,-0.26
LINC02875 (GeneID 388407),1,no change,no change,1.62,0.28
FTL (GeneID 2512),1,no change,no change,0.94,0.7
MED17 (GeneID 9440),1,no change,no change,1.55,-0.34
YIPF3 (GeneID 25844),1,no change,no change,0.02,0.29

Next part (5 carried over from the part before).
Gene,pool no.,viability hit class,caspase hit class,viability robust z-score,caspase robust z-score
CT45A3 (GeneID 441519),2,no change,no change,0.14,-0.26
LINC02875 (GeneID 388407),1,no change,no change,1.62,0.28
FTL (GeneID 2512),1,no change,no change,0.94,0.7
MED17 (GeneID 9440),1,no change,no change,1.55,-0.34
YIPF3 (GeneID 25844),1,no change,no change,0.02,0.29
PPM1G (GeneID 5496),1,no change,no change,1.76,-0.19
DVL1 (GeneID 1855),1,no change,no change,-0.14,4.56
ARHGEF5 (GeneID 7984),1,no change,no change,1.42,0.45
ACYP1 (GeneID 97),1,no change,no change,-1.18,0.53
ZRANB2 (GeneID 9406),1,no change,no change,-0.36,0.8
CD83 (GeneID 9308),1,no change,no change,2.59,0.64
CD14 (GeneID 929),1,no change,no change,0.29,-0.7
CPA2 (GeneID 1358),1,no change,no change,0.72,0.01
ZBTB45 (GeneID 84878),1,no change,no change,-0.63,4.24
INSR (GeneID 3643),1,no change,no change,-0.34,-0.24
SERTAD2 (GeneID 9792),1,no change,no change,-2.29,-0.5
SHQ1 (GeneID 55164),1,no change,no change,0.96,-0.34
C1orf210 (GeneID 149466),1,no change (active),CA2 (caspase activation),-2.34,6.74
LRP3 (GeneID 4037),1,no change (active),CA1 (caspase activation),-0.32,5.77
ZNF354A (GeneID 6940),1,no change,no change,-0.3,0.2
OR6B3 (GeneID 150681),1,no change,no change,0.2,-0.19
PLGLB2 (GeneID 5342),1,no change,no change,0.76,-0.9
EEF2K (GeneID 29904),1,no change,no change,-0.76,0.85
HSPB3 (GeneID 8988),1,no change,no change,-0.36,4.99
PTGR3 (GeneID 284273),1,no change,no change,1.06,-0.57
ZNF140 (GeneID 7699),1,no change,no change,0.74,-0.56
SMS (GeneID 6611),1,no change,no change,-0.75,-0.74
RNF103 (GeneID 7844),1,no change,no change,-1.54,2.02
ME2 (GeneID 4200),1,no change,no change,0.54,-0.38
ZNF483 (GeneID 158399),1,no change,no change,-1.51,0.56
